Measured values from patent publication US9181188B2, “Aryl ureas as kinase inhibitors” (Bayer Healthcare LLC, priority 2002, dated 2015).
Some entries share one result that the patent states for a list of compounds.

Target: raf kinase (Homo sapiens, UniProt P04049)
Experiment: In vitro raf kinase assay
Format: biochemical
Conditions: at 10 micromolars; MEK as substrate, 33P-ATP incorporation

| SMILES | inhibition of raf kinase in vitro |
| --- | --- |
| CNC(=O)c1cc(Oc2ccc(NC(=O)Nc3ccc(Cl)c(C(F)(F)F)c3)cc2)cc[n+]1[O-] [Example 1, N-[4-chloro-3-(trifluoromethyl)phenyl]-N′-{4-[2-(N-methylcarbamoyl)-1-oxo-(4-pyridyloxy)]phenyl}urea] | > 50% |
| NC(=O)c1cc(Oc2ccc(NC(=O)Nc3ccc(Cl)c(C(F)(F)F)c3)cc2)cc[n+]1[O-] [Example 2, N-[4-chloro-3-(trifluoromethyl)phenyl]-N′-{4-[2-carbamoyl-1-oxo-(4-pyridyloxy)]phenyl}urea] | > 50% |
